Measured values: PubChem BioAssay AID1347076 (National Center for Advancing Translational Sciences (NCATS), 2019)
The campaign covered roughly 400,000 compounds. About 13,000 (3.2%) were called active. The inconclusive results got no clear call from the source; some entries with a clear call stand among them for comparison. Calls come from the whole dose curve; as a rule, active = well fitted cell-killing curve with a large enough effect; inconclusive = small, poorly fitted or top-dose-only effect, or effect the other way; inactive = flat fitted curve, though single readings scatter. A potency beside an inconclusive call is a rough fit, not a confirmed value.
% is set by controls: 0 for no effect and ±100 for the full control effect; potency is the fitted concentration of half-maximal effect.

Test: qHTS assay for MDR1-selective chemotherapeutics: Primary screen using the drug-selected MDR subline cells KB-V1; note: nearly all actives have a fitted effect of over 60% in size
Settings: KB-V1 MDR cells viability, CellTiter-Glo, 72 h; activity change, negative = cytotoxicity: at 46.1 µM (top of the series)
In short: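 KB-V1, DMEM (no phenol red) + 10% FBS; cpd pin-transferred, titration series; 72 h, 37 degrees C; CellTiter-Glo, luminescence. Data normalized, curve-fit.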
For `COc1cccc(CN2CCCN(Cc3ccc(F)cc3)S2(=O)=O)c1`, the Potency was “inactive”.
With `COc1nc(N/N=C/c2ccc(-c3ccccc3[N+](=O)[O-])o2)nc(N2CCOCC2)n1` the Potency was inconclusive: 5.8 µM [cytotoxic, partial curve].
For `Cc1nc2c(C)cccc2cc1C(=O)N/N=C/c1ccc(O)cc1`, the Potency was inconclusive: 20.6 µM [cytotoxic, partial curve, poor fit].
In the case of `COc1ccc2c(c1OC)C(=O)N(c1ccccn1)C2`, the Potency is reported as inconclusive: 29.1 µM [cytotoxic, single point].
With `COc1cccc(CNC(=O)c2cc3cc(C)ccc3n2C)c1` the Potency was inconclusive: 2.31 µM [cytotoxic, partial curve, poor fit].
With `COc1ccc(C2C(=O)c3ccccc3C2=O)cc1OC` the Potency was “inactive”.
For `Cc1ccc(-n2c(SCC(=O)NCC3CCCO3)nc3ccccc3c2=O)cc1` (stereo not given), the Potency was inconclusive: 32.6 µM [cytotoxic, single point].
In the case of `COc1ccc(C)cc1NC(=O)C1CCN(S(=O)(=O)Cc2ccccc2)CC1`, the Potency is reported as “inactive”.
In the case of `Cc1[nH]cnc1C(=O)N/N=C/c1c(Cl)cccc1Cl`, the Potency is reported as active: 20.6 µM.
With `O=C1CC(N2CCN(c3ccc(Cl)cc3)CC2)C(=O)N1c1ccccc1` (stereo not given) the Potency was inconclusive: 29.1 µM [rising, single point].
For `N#C/C(=C/c1ccc(O)c([N+](=O)[O-])c1)C(=O)Nc1ccccc1`, the Potency was inconclusive: 16.4 µM [cytotoxic, partial curve, poor fit].
In the case of `COc1cc(-c2ccc3oc(-c4ccsc4)c(C#CC4(O)CCCCC4)c3c2)cc(OC)c1OC`, the Potency is reported as “inactive”.
With `O=C(Nc1cccnc1)c1ccc(S(=O)(=O)N2CCCCCC2)cc1` the Potency was inconclusive: 13 µM [cytotoxic, partial curve].
With `O=C(NCCC(=O)N1CCC2(CC1)NCCc1[nH]cnc12)c1ccc(Br)cc1` the Potency was inconclusive: 20.6 µM [rising, single point].
For `CCCN1CCC(=O)N([C@H](CSc2ccccc2)Cc2ccccc2)CC1`, the Potency was inconclusive: 5.17 µM [cytotoxic, full curve].
In the case of `Cc1ccc(NC(=O)Nc2cnccn2)c(C)c1`, the Potency is reported as inconclusive: 20.6 µM [cytotoxic, single point].
With `COc1ccccc1OCC(=O)N1CCCCCCC1` the Potency was inconclusive: 29.1 µM [rising, single point].
With `O=C(Nc1ccccn1)C1CCN(c2ncnc3c2nc2n3CCCCC2)CC1` the Potency was “inactive”.
In the case of `CCOCCCNCc1cn(-c2ccc(F)cc2F)nc1-c1ccccc1C`, the Potency is reported as inconclusive: 9.2 µM [cytotoxic, partial curve, poor fit].
For `CCN(CC)c1ccc(C2C(C(=O)OC(C)C)C(=O)CC(C)(O)C2C(=O)OC(C)C)cc1` (stereo not given), the Potency was active: 18.4 µM.
In the case of `COc1cc(CSc2nnnn2-c2ccc(C)cc2)cc(OC)c1OC`, the Potency is reported as active: 2.06 µM.
For `CCOC(=O)Cn1nc(C)cc1NC(=O)c1cc(OC)c(OC)c(OC)c1`, the Potency was “inactive”.
With `c1ccc(COc2ccccc2CNC2CCCC2)cc1` the Potency was inconclusive: 13 µM [cytotoxic, partial curve, poor fit].
With `Cc1ccc(S(=O)(=O)N(C)C)cc1NC(=O)COC(=O)C1=COCCO1` the Potency was inconclusive: 14.6 µM [rising, partial curve, poor fit].
For `COc1ccc(S(=O)(=O)n2nc(OCc3cccs3)cc2N)cc1`, the Potency was active: 20.6 µM.
In the case of `O=C(CCn1ccc2cc(S(=O)(=O)N3CCCC3)ccc21)NCc1ccccc1Cl`, the Potency is reported as inconclusive: 1.16 µM [rising, partial curve].
With `COc1cccc(N(CC(=O)N2CCCC2)S(C)(=O)=O)c1` the Potency was “inactive”.
For `COc1cc(NC(=O)C2=C(N3CCOCC3)/C(=C\c3ccc(Cl)cc3Cl)CC2)cc(OC)c1OC`, the Potency was inconclusive: 23.1 µM [cytotoxic, partial curve, poor fit].
In the case of `CC(C)c1ccc(S(=O)(=O)c2cc3cc(Br)ccc3oc2=O)cc1`, the Potency is reported as inconclusive: 18.4 µM [cytotoxic, single point].
In the case of `O=C(CSC1=NS(=O)(=O)c2cc(Cl)ccc2N1)Nc1ccccc1C(F)(F)F`, the Potency is reported as inconclusive: 23.1 µM [rising, single point].
For `Fc1ccccc1Nc1ncnc2c1nc1n2CCCCC1`, the Potency was inconclusive: 13 µM [cytotoxic, partial curve, poor fit].
For `O=C(NC1CC1)c1scc2c1OCCO2`, the Potency was “inactive”.
For `CC(C)C[C@H]1C(=O)N2CCC[C@H]2[C@]2(O)O[C@](NC(=O)C3C=C4c5cccc6[nH]c(Br)c(c56)C[C@H]4N(C)C3)(C(C)C)C(=O)N12` (stereo not given in full), the Potency was inconclusive: 29.1 µM [cytotoxic, single point].
For `Cc1ccc(Nc2nc(-c3cccnc3)nc3ccccc23)cc1`, the Potency was inconclusive: 9.2 µM [cytotoxic, partial curve, poor fit].
With `COc1ccc(C(=O)NC(=S)N(C)Cc2ccccc2)cc1Br` the Potency was inconclusive: 8.2 µM [rising, partial curve, poor fit].
For `O=C(c1ccccc1)N1CCN(CC2CC=CCC2)CC1` (stereo not given), the Potency was “inactive”.
In the case of `CN(Cc1ccncc1)C1CC(=O)N(c2ccc(F)cc2)C1=O` (stereo not given), the Potency is reported as inconclusive: 32.6 µM [rising, single point].
With `Cc1cc(C)c2c(n1)NCCC2` the Potency was “inactive”.
For `Cc1cc(C)cc(NC(=O)CN(Cc2ccccc2)S(C)(=O)=O)c1`, the Potency was inconclusive: 13 µM [cytotoxic, partial curve].
For `CC(C)CCNC(=O)c1c[nH]c2ccc(S(=O)(=O)N3CCOCC3)cc2c1=O`, the Potency was inconclusive: 5.8 µM [rising, partial curve, poor fit].
For `CCOc1ccc(N(CC(=O)NCCSCc2ccc(Cl)cc2)S(C)(=O)=O)cc1`, the Potency was inconclusive: 6.51 µM [cytotoxic, partial curve, poor fit].
With `Cc1cc(C)cc(NC(=O)CN2C(=O)NC(C)(c3ccccc3)C2=O)c1` (stereo not given) the Potency was “inactive”.
With `CCN1CCN(CC(=O)N2c3ccccc3CC2C)CC1` (stereo not given) the activity change, negative = cytotoxicity was inconclusive: -23.9%.
For `C=C(C)C(O)CC/C(C)=C/Cc1c(O)ccc(C(=O)/C=C/c2ccc(O)cc2)c1O` (stereo not given), the Potency was “inactive”.
In the case of `S=C(NC1CCCCC1)N1CCN(c2ccccn2)CC1`, the Potency is reported as inconclusive: 16.4 µM [cytotoxic, single point].
